Measured values published in patent US9205064B2, “Methods for the diagnosis of oncological disorders using epimetabolic shifters, multidimensional intracellular molecules, or environmental influencers” (Berg LLC, priority 2009, dated 2015).

Assay: LC-MS/MS quantification of Q10 and Q10H2 in mitochondrial enriched samples
Format: cell-based

Compound: COC1=C(OC)C(=O)C(C/C=C(\C)CC/C=C(\C)CC/C=C(\C)CC/C=C(\C)CC/C=C(\C)CC/C=C(\C)CC/C=C(\C)CC/C=C(\C)CC/C=C(\C)CCC=C(C)C)=C(C)C1=O [Q10, Coenzyme Q10]
- increase in mitochondrial Q10 levels (100 μM Q10, 19 hours): −3 fold
- increase in mitochondrial Q10 levels (100 μM Q10, 48 hour): ~6 fold
- Q9 level in mitochondrial enriched sample (6 hr Q10 treated, 100 μM): 0.28 ng/Sample
- Q10 level in mitochondrial enriched sample (6 hr Q10 treated, 100 μM): 7.21 ng/Sample
- Q9 level in mitochondrial enriched sample (19 hr Q10 treated, 100 μM): 0.47 ng/Sample
- Q10 level in mitochondrial enriched sample (19 hr Q10 treated, 100 μM): 16.27 ng/Sample
- Q9 level in mitochondrial enriched sample (48 hr Q10 treated, 100 μM): 1.99 ng/Sample
- Q10H2 level in mitochondrial enriched sample (48 hr Q10 treated, 100 μM): 0.28 ng/Sample
- Q10 level in mitochondrial enriched sample (48 hr Q10 treated, 100 μM): 46.63 ng/Sample
- general increase in the levels of Q10H2 (Q10 treated 48 hour sample): 3 fold
- form of Q10 in the mitochondria (exogenous Q10 in the media): maintained in the supplied oxidized form
